This is one part of the list.
compound: CON(C)C(=O)N1N=C(c2cc(F)ccc2F)S[C@@]1(CCCN)c1ccccc1 [filanesib]; assay: log2 fold change, soluble protein after heating vs DMSO (PISA); higher = thermal stabilisation; K562 cells, 10 uM, 30 min; active = over 0.2 and 3.5 SD of the protein, either way, in both replicates (recomputed)
Outline: (§1)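 Aliquots of K562 cells (2×10^6 cells/mL) treated with 10 μM compound for 30 min were heated for 3 min over 48°C-58°C. After pooling and extraction in PBS with 0.5% NP-40 at 4°C, soluble protein from a 21,000xg, 90 min spin was quantified by TMTpro 16plex LC-MS/MS with channel sums equalised. Thermal stability is expressed against control samples, from duplicates, as a log2 fold change.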

Sequences of proteins named here, by UniProt entry; tags and fusion partners are left off. A change or cut given only in a name is not applied to a line headed by its entry.
UniProt Q9H4I3: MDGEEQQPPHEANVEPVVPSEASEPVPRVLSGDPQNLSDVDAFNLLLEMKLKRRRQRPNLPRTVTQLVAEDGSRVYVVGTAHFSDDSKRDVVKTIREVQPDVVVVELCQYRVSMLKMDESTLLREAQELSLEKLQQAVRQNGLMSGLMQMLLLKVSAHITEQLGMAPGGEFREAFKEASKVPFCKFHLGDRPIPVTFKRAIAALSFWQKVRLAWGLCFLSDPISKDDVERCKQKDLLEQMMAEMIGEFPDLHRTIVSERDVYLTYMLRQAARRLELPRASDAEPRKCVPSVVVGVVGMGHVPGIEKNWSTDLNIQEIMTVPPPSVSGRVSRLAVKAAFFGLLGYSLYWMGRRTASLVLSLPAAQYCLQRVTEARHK
UniProt Q8NCE0: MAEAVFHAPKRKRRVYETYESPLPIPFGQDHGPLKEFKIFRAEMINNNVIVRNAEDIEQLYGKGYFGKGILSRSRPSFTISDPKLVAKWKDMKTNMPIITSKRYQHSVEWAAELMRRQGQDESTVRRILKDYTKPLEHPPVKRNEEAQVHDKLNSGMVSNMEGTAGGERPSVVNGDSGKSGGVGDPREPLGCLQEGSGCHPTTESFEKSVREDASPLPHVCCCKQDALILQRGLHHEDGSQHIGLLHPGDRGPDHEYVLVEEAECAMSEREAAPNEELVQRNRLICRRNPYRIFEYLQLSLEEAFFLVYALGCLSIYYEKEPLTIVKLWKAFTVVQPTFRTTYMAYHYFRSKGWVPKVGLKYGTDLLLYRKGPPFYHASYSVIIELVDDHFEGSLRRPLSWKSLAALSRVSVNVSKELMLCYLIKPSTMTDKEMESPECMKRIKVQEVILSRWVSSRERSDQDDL
UniProt Q96FX7: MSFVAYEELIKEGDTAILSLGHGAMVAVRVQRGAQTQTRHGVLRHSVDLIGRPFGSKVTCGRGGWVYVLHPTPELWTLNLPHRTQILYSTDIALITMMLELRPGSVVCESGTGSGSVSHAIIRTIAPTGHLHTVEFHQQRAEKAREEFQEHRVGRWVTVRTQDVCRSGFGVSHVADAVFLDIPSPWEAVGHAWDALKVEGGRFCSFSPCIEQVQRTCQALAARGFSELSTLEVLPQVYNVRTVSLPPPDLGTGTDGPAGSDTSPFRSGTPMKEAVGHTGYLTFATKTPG
UniProt Q96DX7: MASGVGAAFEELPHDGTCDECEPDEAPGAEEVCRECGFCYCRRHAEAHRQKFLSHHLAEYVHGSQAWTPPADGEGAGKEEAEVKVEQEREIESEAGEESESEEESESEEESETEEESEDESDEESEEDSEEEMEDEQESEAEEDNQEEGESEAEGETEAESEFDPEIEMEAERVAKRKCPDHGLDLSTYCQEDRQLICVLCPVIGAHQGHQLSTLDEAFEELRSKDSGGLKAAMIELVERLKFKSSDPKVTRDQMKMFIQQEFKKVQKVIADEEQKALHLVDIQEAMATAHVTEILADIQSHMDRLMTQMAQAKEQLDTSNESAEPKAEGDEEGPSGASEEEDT
UniProt Q9P0U1: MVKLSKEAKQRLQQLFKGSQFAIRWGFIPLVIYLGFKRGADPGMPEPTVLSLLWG
UniProt Q86SZ2: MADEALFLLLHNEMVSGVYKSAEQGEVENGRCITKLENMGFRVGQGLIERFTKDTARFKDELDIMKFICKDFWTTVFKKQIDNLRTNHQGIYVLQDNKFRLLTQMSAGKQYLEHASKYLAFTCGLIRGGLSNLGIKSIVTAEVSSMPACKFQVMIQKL
UniProt Q629K1: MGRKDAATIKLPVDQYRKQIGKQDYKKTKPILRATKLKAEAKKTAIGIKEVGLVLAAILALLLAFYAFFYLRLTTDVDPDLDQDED
UniProt Q9C037: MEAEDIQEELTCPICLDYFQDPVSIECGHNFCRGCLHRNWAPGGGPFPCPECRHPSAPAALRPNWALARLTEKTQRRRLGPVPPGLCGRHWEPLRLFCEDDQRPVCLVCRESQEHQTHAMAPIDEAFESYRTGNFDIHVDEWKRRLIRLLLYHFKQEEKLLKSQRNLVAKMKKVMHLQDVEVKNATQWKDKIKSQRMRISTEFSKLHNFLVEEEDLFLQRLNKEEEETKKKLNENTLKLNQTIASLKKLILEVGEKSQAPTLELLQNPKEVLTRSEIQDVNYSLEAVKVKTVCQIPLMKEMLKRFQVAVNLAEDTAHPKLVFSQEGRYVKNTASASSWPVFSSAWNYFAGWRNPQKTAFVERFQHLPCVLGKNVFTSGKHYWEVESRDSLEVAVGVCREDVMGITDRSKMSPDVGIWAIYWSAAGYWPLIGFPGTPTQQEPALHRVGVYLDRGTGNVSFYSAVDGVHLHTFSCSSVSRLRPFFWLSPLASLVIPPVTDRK
UniProt Q9Y5R8, whole entry, looked up: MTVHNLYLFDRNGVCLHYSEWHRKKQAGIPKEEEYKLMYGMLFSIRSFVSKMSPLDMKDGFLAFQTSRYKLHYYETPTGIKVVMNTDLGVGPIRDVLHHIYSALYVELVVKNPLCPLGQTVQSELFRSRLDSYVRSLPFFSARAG
UniProt Q7Z392: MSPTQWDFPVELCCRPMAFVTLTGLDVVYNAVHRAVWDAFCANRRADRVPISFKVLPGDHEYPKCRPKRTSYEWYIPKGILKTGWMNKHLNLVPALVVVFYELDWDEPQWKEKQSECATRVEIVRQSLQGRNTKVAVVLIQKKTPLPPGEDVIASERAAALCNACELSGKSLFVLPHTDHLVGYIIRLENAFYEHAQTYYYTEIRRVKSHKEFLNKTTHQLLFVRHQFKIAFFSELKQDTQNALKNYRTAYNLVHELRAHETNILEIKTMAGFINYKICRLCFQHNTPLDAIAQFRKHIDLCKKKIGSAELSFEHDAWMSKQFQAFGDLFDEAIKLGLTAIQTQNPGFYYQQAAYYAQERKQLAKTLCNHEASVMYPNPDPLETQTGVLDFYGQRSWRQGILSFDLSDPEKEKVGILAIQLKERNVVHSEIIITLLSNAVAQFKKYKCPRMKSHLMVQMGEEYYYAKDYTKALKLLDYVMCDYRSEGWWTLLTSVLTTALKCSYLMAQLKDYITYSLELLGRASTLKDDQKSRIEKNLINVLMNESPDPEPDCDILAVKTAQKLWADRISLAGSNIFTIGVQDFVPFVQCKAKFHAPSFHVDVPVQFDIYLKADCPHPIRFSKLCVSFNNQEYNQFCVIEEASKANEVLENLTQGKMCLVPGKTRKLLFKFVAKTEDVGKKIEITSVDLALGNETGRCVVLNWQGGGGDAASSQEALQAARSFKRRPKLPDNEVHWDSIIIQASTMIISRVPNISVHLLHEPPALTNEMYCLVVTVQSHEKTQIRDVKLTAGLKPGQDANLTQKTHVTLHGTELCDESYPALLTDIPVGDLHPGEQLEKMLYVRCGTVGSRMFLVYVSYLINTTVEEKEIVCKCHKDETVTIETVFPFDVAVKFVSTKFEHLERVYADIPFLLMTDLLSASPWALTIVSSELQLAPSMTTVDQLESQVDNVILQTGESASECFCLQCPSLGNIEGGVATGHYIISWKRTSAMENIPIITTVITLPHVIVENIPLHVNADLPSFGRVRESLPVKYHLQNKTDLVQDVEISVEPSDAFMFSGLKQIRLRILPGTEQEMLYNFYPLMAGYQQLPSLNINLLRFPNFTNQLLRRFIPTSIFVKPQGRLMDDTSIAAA
UniProt Q9BSV6: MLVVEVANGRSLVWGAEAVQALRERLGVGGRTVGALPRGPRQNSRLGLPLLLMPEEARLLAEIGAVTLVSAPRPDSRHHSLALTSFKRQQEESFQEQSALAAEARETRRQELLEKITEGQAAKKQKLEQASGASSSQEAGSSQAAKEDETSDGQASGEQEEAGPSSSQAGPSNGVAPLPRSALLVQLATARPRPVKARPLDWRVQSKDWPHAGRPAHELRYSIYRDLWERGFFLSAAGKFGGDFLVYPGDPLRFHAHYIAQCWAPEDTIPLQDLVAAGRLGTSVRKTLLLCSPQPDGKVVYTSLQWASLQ
UniProt Q12888: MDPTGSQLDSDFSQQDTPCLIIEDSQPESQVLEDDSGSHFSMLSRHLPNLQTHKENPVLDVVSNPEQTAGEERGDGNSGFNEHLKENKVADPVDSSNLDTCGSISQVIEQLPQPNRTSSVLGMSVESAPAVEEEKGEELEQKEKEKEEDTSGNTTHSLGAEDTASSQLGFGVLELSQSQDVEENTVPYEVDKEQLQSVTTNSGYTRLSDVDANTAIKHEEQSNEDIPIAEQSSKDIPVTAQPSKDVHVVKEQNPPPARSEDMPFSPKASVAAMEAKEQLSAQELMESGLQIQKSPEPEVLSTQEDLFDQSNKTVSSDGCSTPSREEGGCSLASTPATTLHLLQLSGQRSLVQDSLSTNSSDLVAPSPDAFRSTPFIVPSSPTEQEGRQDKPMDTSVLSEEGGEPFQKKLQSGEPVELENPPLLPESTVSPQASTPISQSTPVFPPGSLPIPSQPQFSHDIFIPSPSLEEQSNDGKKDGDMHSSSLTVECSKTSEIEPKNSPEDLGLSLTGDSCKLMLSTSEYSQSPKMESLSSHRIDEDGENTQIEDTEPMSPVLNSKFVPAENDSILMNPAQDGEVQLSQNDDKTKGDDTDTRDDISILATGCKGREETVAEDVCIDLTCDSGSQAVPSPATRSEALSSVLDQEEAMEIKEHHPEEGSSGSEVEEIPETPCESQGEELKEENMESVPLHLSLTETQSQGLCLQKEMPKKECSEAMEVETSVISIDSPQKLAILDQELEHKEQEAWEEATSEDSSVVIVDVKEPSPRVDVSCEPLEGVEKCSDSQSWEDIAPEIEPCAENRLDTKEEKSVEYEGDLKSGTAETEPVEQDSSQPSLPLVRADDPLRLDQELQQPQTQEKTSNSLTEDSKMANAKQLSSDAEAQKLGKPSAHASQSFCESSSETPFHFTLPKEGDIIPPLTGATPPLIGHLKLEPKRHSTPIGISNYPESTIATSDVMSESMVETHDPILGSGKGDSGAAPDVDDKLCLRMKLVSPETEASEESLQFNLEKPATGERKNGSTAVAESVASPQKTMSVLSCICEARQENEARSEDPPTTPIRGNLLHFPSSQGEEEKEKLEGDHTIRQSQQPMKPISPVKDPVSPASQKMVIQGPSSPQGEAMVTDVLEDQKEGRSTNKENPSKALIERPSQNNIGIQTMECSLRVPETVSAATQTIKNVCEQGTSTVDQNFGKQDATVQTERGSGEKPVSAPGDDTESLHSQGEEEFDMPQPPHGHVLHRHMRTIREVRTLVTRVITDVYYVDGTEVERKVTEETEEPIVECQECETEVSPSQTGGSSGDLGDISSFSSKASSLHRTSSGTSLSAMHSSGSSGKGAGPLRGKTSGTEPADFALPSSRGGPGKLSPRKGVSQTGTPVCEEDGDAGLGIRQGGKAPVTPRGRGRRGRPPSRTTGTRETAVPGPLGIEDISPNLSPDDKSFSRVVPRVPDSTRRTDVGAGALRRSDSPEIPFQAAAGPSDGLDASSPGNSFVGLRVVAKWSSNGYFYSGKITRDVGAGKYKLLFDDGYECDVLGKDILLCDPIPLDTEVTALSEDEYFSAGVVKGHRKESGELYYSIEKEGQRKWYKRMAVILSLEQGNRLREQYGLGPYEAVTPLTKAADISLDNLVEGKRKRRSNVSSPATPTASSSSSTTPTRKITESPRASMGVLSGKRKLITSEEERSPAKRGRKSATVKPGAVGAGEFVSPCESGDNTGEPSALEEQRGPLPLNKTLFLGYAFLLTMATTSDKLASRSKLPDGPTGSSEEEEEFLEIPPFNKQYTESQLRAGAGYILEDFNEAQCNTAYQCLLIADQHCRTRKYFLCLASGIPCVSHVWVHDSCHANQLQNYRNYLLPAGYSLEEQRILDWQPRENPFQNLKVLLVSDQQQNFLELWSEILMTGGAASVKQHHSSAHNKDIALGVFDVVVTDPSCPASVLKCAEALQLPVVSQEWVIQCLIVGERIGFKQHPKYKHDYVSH
UniProt P28908: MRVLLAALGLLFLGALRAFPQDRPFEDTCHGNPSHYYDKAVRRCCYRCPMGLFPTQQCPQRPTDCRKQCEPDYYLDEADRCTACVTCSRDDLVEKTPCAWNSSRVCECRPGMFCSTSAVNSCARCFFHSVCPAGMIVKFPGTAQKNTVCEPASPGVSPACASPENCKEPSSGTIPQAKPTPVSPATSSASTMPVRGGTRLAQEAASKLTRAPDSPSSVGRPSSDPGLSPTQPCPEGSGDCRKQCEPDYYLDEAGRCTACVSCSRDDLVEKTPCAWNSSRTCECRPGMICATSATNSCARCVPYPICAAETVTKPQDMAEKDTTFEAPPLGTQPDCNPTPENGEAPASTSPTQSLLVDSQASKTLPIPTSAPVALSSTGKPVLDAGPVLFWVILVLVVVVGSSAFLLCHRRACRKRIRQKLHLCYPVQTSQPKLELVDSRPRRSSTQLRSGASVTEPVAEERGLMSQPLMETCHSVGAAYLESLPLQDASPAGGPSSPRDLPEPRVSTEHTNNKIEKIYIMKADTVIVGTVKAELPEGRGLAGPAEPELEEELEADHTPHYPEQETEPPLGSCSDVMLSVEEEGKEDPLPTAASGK

log2 fold change, inactive:
TRABD (UniProt Q9H4I3) 0.051
TRIP10 isoform 2 (UniProt Q15642) -0.213
TSEN2 (UniProt Q8NCE0) 0.043
TRMT61A (UniProt Q96FX7) 0.136
TRIM44 (UniProt Q96DX7) 0.022
TOMM7 (UniProt Q9P0U1) -0.069
TSC2 (UniProt P49815) 0.198
TRAPPC6B (UniProt Q86SZ2) -0.023
TRIQK (UniProt Q629K1) 0.1

compound: CO[C@H]1C[C@@H]2CC[C@@H](C)[C@@](O)(O2)C(=O)C(=O)N2CCCC[C@H]2C(=O)O[C@H]([C@H](C)C[C@@H]2CC[C@H](n3cnnn3)[C@H](OC)C2)CC(=O)[C@H](C)/C=C(\C)[C@@H](O)[C@@H](OC)C(=O)[C@H](C)C[C@H](C)/C=C/C=C/C=C/1C [zotarolimus]; assay: as above
Outline: as §1

log2 fold change, inactive:
TP53BP2 isoform 3 (UniProt Q13625) -0.036
TPP2 (UniProt Q5VZU9) 0.026
TPK1 (UniProt Q9H3S4) -0.053
TRIM4 (UniProt Q9C037) 0.056
TOM1L2 (UniProt Q6ZVM7) -0.036
TNRC6B (UniProt Q9UPQ9) -0.045
TRAF7 (UniProt Q6Q0C0) 0.081
TRIM23 (UniProt P36406) 0.036
TRPM7 (UniProt Q96QT4) -0.075
TRAPPC1 (UniProt Q9Y5R8) 0.136
TRAPPC11 (UniProt Q7Z392) 0.024
TSEN34 (UniProt Q9BSV6) -0.057
TP53BP1 isoform 2 (UniProt Q12888) 0.054
TNFRSF8 (UniProt P28908) -0.019
TRMT10C (UniProt Q7L0Y3) 0.016
TRABD (UniProt Q9H4I3) 0.11
TRIP10 isoform 2 (UniProt Q15642) 0.013
TSEN2 (UniProt Q8NCE0) 0
TRMT61A (UniProt Q96FX7) 0.077
TRIM44 (UniProt Q96DX7) 0.005
TSC2 (UniProt P49815) -0.181
TRAPPC6B (UniProt Q86SZ2) 0.012
TRIQK (UniProt Q629K1) -0.08

compound: COc1cc(C(=O)O)ccc1NC(=O)[C@@H]1N[C@@H](CC(C)(C)C)[C@](C#N)(c2ccc(Cl)cc2F)[C@H]1c1cccc(Cl)c1F [idasanutlin]; assay: as above
Outline: as §1

log2 fold change, inactive:
TP53BP2 isoform 3 (UniProt Q13625) -0.015
TRIP11 (UniProt Q15643) 0.126
TPP2 (UniProt Q5VZU9) 0.305
TRIM4 (UniProt Q9C037) -0.208
TOM1L2 (UniProt Q6ZVM7) -0.002
TNRC6B (UniProt Q9UPQ9) 0.118
TRAF7 (UniProt Q6Q0C0) 0.033
TRPM7 (UniProt Q96QT4) 0.153
TRIM24 (UniProt O15164) -0.207
TRAPPC1 (UniProt Q9Y5R8) -0.117
TRAPPC11 (UniProt Q7Z392) -0.039
TSEN34 (UniProt Q9BSV6) -0.059
TRPC4AP (UniProt Q8TEL6) 0.032
TP53BP1 isoform 2 (UniProt Q12888) 0.04
TNFRSF8 (UniProt P28908) 0.04
TRMT10C (UniProt Q7L0Y3) -0.107
TRIO (UniProt O75962) -0.203
TRPT1 isoform 4 (UniProt Q86TN4) -0.194
TRABD (UniProt Q9H4I3) 0.167
TRIP10 isoform 2 (UniProt Q15642) 0.128
TSEN2 (UniProt Q8NCE0) -0.065
TRMT61A (UniProt Q96FX7) 0.025
TRIM44 (UniProt Q96DX7) -0.025
TSC2 (UniProt P49815) 0.017
TRAPPC6B (UniProt Q86SZ2) -0.023

compound: COc1cc(Nc2ncc3c(n2)-c2ccc(Cl)cc2C(c2c(F)cccc2OC)=NC3)ccc1C(=O)O [alisertib]; assay: as above
Outline: as §1

log2 fold change, inactive:
TRIP11 (UniProt Q15643) -0.031
TPP2 (UniProt Q5VZU9) -0.056
TOM1 (UniProt O60784) 0.103
TPK1 (UniProt Q9H3S4) -0.147
TRIM4 (UniProt Q9C037) -0.088
TREML2 (UniProt Q5T2D2) 0.057
TRAF7 (UniProt Q6Q0C0) 0.031
TRIM23 (UniProt P36406) -0.078
TRPM7 (UniProt Q96QT4) -0.154
TRIM24 (UniProt O15164) 0.011
TRAPPC1 (UniProt Q9Y5R8) 0.04
TRAPPC11 (UniProt Q7Z392) -0.052
TSEN34 (UniProt Q9BSV6) 0.003
TRPC4AP (UniProt Q8TEL6) -0.172
TP53BP1 isoform 2 (UniProt Q12888) 0.046
TNFRSF8 (UniProt P28908) -0.011
TRMT10C (UniProt Q7L0Y3) -0.033
TRIO (UniProt O75962) 0.015
TRPT1 isoform 4 (UniProt Q86TN4) -0.055
TRABD (UniProt Q9H4I3) -0.109
TRIP10 isoform 2 (UniProt Q15642) -0.029
TSEN2 (UniProt Q8NCE0) -0.075
TRMT61A (UniProt Q96FX7) -0.017
TRIM44 (UniProt Q96DX7) 0.008
TOMM7 (UniProt Q9P0U1) -0.197
TSC2 (UniProt P49815) 0.195
TRAPPC6B (UniProt Q86SZ2) -0.009
TRIQK (UniProt Q629K1) -0.142

Source: the supplement of paper PMC10849652
